The test addresses T1, 3xFLAG-tagged full-length trichoplein (TCHP), FLAG at the N-terminus (human) (UniProt Q9BT92).
T1 sequence: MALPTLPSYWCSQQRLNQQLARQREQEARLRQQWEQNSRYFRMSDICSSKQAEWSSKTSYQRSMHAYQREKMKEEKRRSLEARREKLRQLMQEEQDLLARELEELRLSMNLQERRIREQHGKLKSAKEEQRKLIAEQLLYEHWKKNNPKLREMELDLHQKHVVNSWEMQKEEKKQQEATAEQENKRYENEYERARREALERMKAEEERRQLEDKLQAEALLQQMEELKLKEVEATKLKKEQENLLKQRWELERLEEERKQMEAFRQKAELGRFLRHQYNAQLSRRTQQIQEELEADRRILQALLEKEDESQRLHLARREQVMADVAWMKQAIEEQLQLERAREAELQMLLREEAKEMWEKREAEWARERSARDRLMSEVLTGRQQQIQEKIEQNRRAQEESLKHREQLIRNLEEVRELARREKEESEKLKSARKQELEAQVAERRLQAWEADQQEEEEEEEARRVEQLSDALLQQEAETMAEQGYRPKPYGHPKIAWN
Description: affinity purification with mass spectrometry; anti-FLAG co-immunoprecipitation from HEK293 cells with FLAG-tagged TCHP as bait, against a control experiment; gel bands digested with trypsin, nano-ESI-HPLC-MS/MS, label-free quantitation.

Protein sequences, listed by entry. Tags and fused reporters are not part of them.
UniProt Q15154: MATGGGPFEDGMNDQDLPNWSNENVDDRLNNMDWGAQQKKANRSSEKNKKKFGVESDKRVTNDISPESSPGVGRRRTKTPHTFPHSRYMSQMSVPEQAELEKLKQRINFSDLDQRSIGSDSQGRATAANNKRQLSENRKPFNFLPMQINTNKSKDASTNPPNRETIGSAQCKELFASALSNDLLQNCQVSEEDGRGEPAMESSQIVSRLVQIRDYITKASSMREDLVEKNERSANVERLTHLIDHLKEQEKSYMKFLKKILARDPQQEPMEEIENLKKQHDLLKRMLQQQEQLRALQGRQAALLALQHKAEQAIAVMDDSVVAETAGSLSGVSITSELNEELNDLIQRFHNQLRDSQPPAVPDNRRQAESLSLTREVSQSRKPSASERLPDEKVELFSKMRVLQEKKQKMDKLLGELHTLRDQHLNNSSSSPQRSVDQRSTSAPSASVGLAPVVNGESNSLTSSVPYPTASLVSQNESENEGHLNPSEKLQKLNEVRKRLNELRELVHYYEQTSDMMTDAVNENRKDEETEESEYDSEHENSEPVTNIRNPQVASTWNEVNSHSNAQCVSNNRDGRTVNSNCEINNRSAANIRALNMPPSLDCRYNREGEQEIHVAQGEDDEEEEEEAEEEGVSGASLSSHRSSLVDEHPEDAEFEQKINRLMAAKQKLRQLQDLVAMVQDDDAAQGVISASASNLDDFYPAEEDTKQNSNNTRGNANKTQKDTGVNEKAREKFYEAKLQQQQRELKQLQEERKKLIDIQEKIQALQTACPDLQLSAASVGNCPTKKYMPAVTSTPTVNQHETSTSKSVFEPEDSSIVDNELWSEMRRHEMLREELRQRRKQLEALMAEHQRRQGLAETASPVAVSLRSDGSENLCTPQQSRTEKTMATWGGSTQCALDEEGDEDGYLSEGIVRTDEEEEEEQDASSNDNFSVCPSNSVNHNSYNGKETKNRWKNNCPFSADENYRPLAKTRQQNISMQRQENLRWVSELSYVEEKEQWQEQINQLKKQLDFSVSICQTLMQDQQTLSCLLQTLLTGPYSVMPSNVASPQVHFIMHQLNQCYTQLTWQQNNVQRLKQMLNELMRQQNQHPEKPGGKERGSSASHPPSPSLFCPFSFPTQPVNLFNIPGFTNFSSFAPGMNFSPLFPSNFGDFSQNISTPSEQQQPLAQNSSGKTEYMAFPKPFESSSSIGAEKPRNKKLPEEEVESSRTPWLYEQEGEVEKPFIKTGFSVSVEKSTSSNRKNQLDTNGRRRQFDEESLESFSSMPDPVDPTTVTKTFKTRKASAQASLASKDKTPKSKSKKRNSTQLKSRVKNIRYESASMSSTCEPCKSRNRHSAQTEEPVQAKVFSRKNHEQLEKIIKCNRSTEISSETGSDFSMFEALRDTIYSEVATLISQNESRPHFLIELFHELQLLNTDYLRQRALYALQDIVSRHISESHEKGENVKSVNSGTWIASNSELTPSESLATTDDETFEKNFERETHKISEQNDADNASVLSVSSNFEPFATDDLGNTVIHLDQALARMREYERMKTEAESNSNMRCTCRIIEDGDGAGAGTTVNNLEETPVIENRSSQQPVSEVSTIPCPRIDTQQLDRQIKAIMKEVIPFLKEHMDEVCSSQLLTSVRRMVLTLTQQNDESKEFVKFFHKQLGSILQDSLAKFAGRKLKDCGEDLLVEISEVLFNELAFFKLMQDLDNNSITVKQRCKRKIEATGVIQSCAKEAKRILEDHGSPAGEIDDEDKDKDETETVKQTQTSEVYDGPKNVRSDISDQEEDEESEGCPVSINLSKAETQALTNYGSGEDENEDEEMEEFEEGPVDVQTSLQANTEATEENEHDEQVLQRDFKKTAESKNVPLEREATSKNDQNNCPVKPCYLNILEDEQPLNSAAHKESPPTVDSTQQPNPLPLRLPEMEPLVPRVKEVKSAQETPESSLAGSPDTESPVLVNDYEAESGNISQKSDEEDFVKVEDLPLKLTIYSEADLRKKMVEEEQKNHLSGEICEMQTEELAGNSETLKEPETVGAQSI

Results are given in words; binding and its absence hold for the method and conditions named. In cells and extracts the contact can be indirect. These calls come from enrichment with a bait or labelling near it, and not all partners need be listed. Where a sequence is shown, tags or fusion partners need not be part of it.

As to “PCM1, centriolar satellite protein, endogenous in HEK293 cells (from UniProt Q15154 1-2024)”, the binding entry is listed as “binds”.
